Laboratory results from PubChem BioAssay (EPA / NIEHS).
The shares of active, inactive and inconclusive entries below differ from those in the screen. Where the call is inconclusive, the potency comes from a doubtful curve fit. Active and inactive are the calls of the source. How the source made its calls: active means hit-call score of the fitted dose curve at least 0.9, where 1 is the maximum; inconclusive means response in the unintended direction; inactive means score below 0.9.

Chains of the proteins cited; added tags and fusions are not shown.
UniProt P04637, whole entry, looked up: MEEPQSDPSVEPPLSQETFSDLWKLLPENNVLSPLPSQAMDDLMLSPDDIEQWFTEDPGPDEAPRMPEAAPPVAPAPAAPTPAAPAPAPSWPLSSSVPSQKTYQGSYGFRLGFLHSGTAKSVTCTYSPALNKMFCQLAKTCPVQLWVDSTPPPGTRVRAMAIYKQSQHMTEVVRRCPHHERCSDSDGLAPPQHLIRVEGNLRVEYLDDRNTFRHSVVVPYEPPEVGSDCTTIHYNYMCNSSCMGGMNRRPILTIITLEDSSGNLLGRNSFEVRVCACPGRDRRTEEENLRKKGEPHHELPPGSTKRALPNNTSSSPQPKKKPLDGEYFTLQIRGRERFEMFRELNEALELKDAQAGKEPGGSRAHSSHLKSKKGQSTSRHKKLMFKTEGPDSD

Molecular target: Cellular tumor antigen p53 (Homo sapiens) (UniProt P04637)
Assay: TOX21_p53_BLA_p3_ratio: Tox21 HCT-116 p53 Agonism Beta-lactamase Assay, Ratio, Phase 3 (AID 2283596)
In short: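 Cells were seeded at 4000/well, rested 5 h at 37C, then dosed with DMSO compound solutions (217-fold dilution) for 16 h. CCF4-AM substrate was loaded for 2 h at room temperature, and the 460/530 nm emission ratio was fitted for gain of signal versus DMSO.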

| SMILES | AC50 | outcome |
| --- | --- | --- |
| CCOC(=O)COc1ccc2c(C)c(CCN(CC)CC)c(=O)oc2c1Cl | inconclusive: 23 µM | – |
| CCc1cc(S(=O)(=O)O)c2cc(C(C)C)cccc1-2 | – | inactive |
| Cn1c(=O)c2[nH]c(Br)nc2n(C)c1=O | inconclusive: 23 µM | – |
| c1ccc(CNCCNCc2ccccc2)cc1 | inconclusive: 41.3 µM | – |
| O=C(O)c1ccc(S(=O)(=O)N(Cl)Cl)cc1 | inconclusive: 23 µM | inactive |
| COCC(O)CO (stereo not drawn) | – | inactive |
| CCOC(=O)C(C)O (stereo not drawn) | inconclusive: 88.1 µM | – |
| CCOC(=O)C(C)(C)C | inconclusive: 24.9 µM | – |

System: not listed separately
Assay: TOX21_p53_BLA_p4_viability: Viability Assessment in the Tox21 HCT-116 p53 Agonism Beta-lactamase Assay, Phase 4 (AID 2283597);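 further: hits lower the luminescence signal meaning cytotoxicity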
In short: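 In this multiplexed secondary endpoint, HCT116 cells (4000 per well, compound at 5 h, 16 h treatment) received CellTiter-Glo after the beta-lactamase read. Luminescence after 30 min RT reflects ATP, and falling signal marks cytotoxicity.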

| SMILES | AC50 | outcome |
| --- | --- | --- |
| CCc1cc(S(=O)(=O)O)c2cc(C(C)C)cccc1-2 | inconclusive: 6.97 µM | – |
| Cn1c(=O)c2[nH]c(Br)nc2n(C)c1=O | inconclusive: 39.2 µM | – |
| c1ccc(CNCCNCc2ccccc2)cc1 | – | inactive |
| CCOC(=O)C(C)(C)C | inconclusive: 46.4 µM | – |

Molecular target: Cellular tumor antigen p53 (Homo sapiens) (UniProt P04637)
Assay: TOX21_p53_BLA_p5_ratio: Tox21 HCT-116 p53 Agonism Beta-lactamase Assay, Ratio, Phase 5 (AID 2283599)
In short: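 Beta-lactamase reporter ratio (blue 460 nm over green 530 nm, 405 nm excitation) after 2 h CCF4-AM loading, in HCT-116 cells exposed 16 h at 37 C to compounds pinned at 217-fold dilution. Increases relative to DMSO baseline scored.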

| SMILES | AC50 | outcome |
| --- | --- | --- |
| CN(C)CCCSc1ccccc1NC(=O)/C=C/c1ccccc1 | inconclusive: 23 µM | – |
| N#Cc1ccc2c(c1)N(CCCN1CCC(O)CC1)c1ccccc1S2 | active: 35.4 µM | – |
| Cc1nc2ccccc2s1 | inconclusive: 46.3 µM | – |
| O=C1c2ccccc2-c2ccccc21 | – | inactive |
| CN1CCN(C2=Nc3cc(F)ccc3Cc3ccccc32)CC1 | inconclusive: 23 µM | – |
| CC(=O)OCC(=O)[C@@]1(OC(C)=O)[C@@H](C)C[C@H]2[C@@H]3C[C@H](F)C4=CC(=O)C=C[C@]4(C)[C@@]3(F)[C@@H](O)C[C@@]21C | inconclusive: 23 µM | – |
| COC(=O)CCC[N+](C)(C)C | inconclusive: 23 µM | – |
| O=C(O)c1ccc(S(=O)(=O)N(Cl)Cl)cc1 | inconclusive: 23 µM | – |
| O=C1OC(=O)c2ccccc21 | inconclusive: 45.9 µM | – |

System: not listed separately
Assay: TOX21_p53_BLA_p5_viability: Viability Assessment in the Tox21 HCT-116 p53 Agonism Beta-lactamase Assay, Phase 5 (AID 2283600)
In short: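 Here cell health was gauged by ATP levels in wells holding 4000 cells, each treated 16 h with DMSO-delivered compounds at 217-fold dilution; reduced luminescence marked toxicity.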

| SMILES | outcome | AC50 |
| --- | --- | --- |
| O=C(O)CNCC(=O)O | inactive | – |
| CN(C)CCCSc1ccccc1NC(=O)/C=C/c1ccccc1 | – | inconclusive: 23 µM |
| O=C(O)[C@H]1/C(=C/CO)O[C@@H]2CC(=O)N21 | – | inconclusive: 23 µM |
| Cc1ccc(S(=O)(=O)NC(=O)NC2CCCC2)cc1 | inactive | – |
| CCCC(=O)OC(=O)CCC | inactive | – |
| Nc1ccncc1N | – | inconclusive: 7.6 µM |
| O=C(O)CCCCCCC(=O)O | – | inconclusive: 0.188 µM |
| N#Cc1ccc2c(c1)N(CCCN1CCC(O)CC1)c1ccccc1S2 | inactive | – |
| CC1C(=O)CC2C3(C)CCC2(C(C)C(=O)O)C(=O)C13 (stereo not drawn) | – | inconclusive: 42 µM |
| O=C1c2ccccc2-c2ccccc21 | – | inconclusive: 47.1 µM |
| N[C@@H](CCC(=O)Nc1ccc([N+](=O)[O-])cc1)C(=O)O | – | inconclusive: 4.5 µM |
| CN1CCN(C2=Nc3cc(F)ccc3Cc3ccccc32)CC1 | – | inconclusive: 0.903 µM |
| C1CSCCS1 | inactive | – |
| O=C(O)c1ccc(S(=O)(=O)N(Cl)Cl)cc1 | – | inconclusive: 23 µM |
| O=Cc1cc2ccccc2o1 | – | inconclusive: 3.28 µM |
| O=C(CCN1CCN(CCO)CC1)N1c2ccccc2Sc2ccc(C(F)(F)F)cc21 | – | inconclusive: 23 µM |
| CNc1cc(OC)c(C(=O)N[C@H]2CCN(Cc3ccccc3)[C@H]2C)cc1Cl | inactive | – |
| CNC(=O)NC | – | inconclusive: 46.8 µM |
| CN1C[C@@H]2C[C@H]1CN2c1cc2c(cc1F)c(=O)c(C(=O)O)cn2C1CC1 | – | inconclusive: 23 µM |
| Cc1ccc(=O)n(-c2ccccc2)c1 | – | inconclusive: 23 µM |

Reprinted from the results shown, 4 compounds:

| SMILES | outcome | AC50 |
| --- | --- | --- |
| N#Cc1ccc2c(c1)N(CCCN1CCC(O)CC1)c1ccccc1S2 | inactive | – |
| CC1C(=O)CC2C3(C)CCC2(C(C)C(=O)O)C(=O)C13 (stereo not drawn) | – | inconclusive: 42 µM |
| O=C1c2ccccc2-c2ccccc21 | – | inconclusive: 47.1 µM |
| N[C@@H](CCC(=O)Nc1ccc([N+](=O)[O-])cc1)C(=O)O | – | inconclusive: 4.5 µM |

Molecular target: Cellular tumor antigen p53 (Homo sapiens) (UniProt P04637)
Assay: TOX21_p53_BLA_p4_ratio: Tox21 HCT-116 p53 Agonism Beta-lactamase Assay, Ratio, Phase 4 (AID 2283601)
In short: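 Signal is the blue/green (460nm/530nm) ratio of cleaved versus uncleaved CCF4-AM substrate, read after 2 h substrate loading. Cells were HCT116 carrying the p53-responsive beta-lactamase reporter, dosed 16 h at 37C, 5% CO2; CellTiter-Glo measured in parallel.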

| SMILES | AC50 | outcome |
| --- | --- | --- |
| O=C(O)CNCC(=O)O | inconclusive: 2.27 µM | – |
| CNc1c2c(nn1C)CCCC2 | inconclusive: 23 µM | – |
| CN(C)CCCSc1ccccc1NC(=O)/C=C/c1ccccc1 | inconclusive: 43.4 µM | – |
| N=C(N)c1ccc(C=Cc2ccc(C(=N)N)cc2O)cc1 | inconclusive: 23 µM | – |
| O=[N+]([O-])c1ccccc1CCO | inconclusive: 46.5 µM | – |
| N#Cc1ccc2c(c1)N(CCCN1CCC(O)CC1)c1ccccc1S2 | active: 25.1 µM | – |
| Cc1nc2ccccc2s1 | inconclusive: 46.3 µM | – |
| CCCCN1C=CN(C)C1 | inconclusive: 12.1 µM | – |
| O=C1c2ccccc2-c2ccccc21 | inconclusive: 47.1 µM | – |
| N[C@@H](CCC(=O)Nc1ccc([N+](=O)[O-])cc1)C(=O)O | inconclusive: 86.7 µM | – |
| CN1CCN(C2=Nc3cc(F)ccc3Cc3ccccc32)CC1 | inconclusive: 41.6 µM | – |
| COc1ccc(C(=O)c2ccc(C)cc2)c(O)c1 | – | inactive |
| CC(=O)OCC(=O)[C@@]1(OC(C)=O)[C@@H](C)C[C@H]2[C@@H]3C[C@H](F)C4=CC(=O)C=C[C@]4(C)[C@@]3(F)[C@@H](O)C[C@@]21C | inconclusive: 42.3 µM | – |
| O=C(O)O | – | inactive |
| C1CSCCS1 | inconclusive: 45.8 µM | – |
| COC(=O)CCC[N+](C)(C)C | inconclusive: 23 µM | – |
| FC(F)(F)c1cccc(Cl)c1 | – | inactive |
| O=C(CCN1CCN(CCO)CC1)N1c2ccccc2Sc2ccc(C(F)(F)F)cc21 | – | inactive |
| CNc1cc(OC)c(C(=O)N[C@H]2CCN(Cc3ccccc3)[C@H]2C)cc1Cl | inconclusive: 23 µM | – |
| O=C1OC(=O)c2ccccc21 | – | inactive |
| O=C(O)C(O)[C@H](O)[C@@H](O)[C@H](O)[C@H](O)CO (stereo partly drawn) | – | inactive |
